Data from patent US20170071901A1, “METHODS AND FORMULATIONS FOR INCREASING CHEMICAL STABILITY AND BIOLOGICAL ACTIVITY OF PHENOLIC COMPOUNDS” (priority 2015, published 2017).
For at least one compound, name, drawing or mass did not settle the structure.

Assays:
[1] = system: MC38 colon cancer cells; experiment: MC38 colon cancer cell proliferation (MTT assay); assay type: cell-based; conditions: MC38, curcumin 20 μM with antioxidant (3.9 μM each, FIG. 4D), 24 h
Protocol: MC38 colon cancer cells (a gift from Prof. Ajit Varki at the University of California, San Diego) were plated into 96-well plates (6,000 cells per well) in 100 μL Dulbecco's Modified Eagle Medium (DMEM, purchased from Lonza, Allendale, N.J.) fortified with 10% Fetal Bovine Serum ([…], purchased from Coming Inc., Corning, N.Y.) and allowed to attach overnight. […] Nitteranon, V.; Chan, L. Y.; Parkin, K. L. Glutathione conjugation attenuates biological activities of 6-dehydroshogaol from ginger. Food Chem. 140:1-8; 2013, which is incorporated by reference herein in its entirety and for all purposes.

[2] = phosphate buffer

O=C1O[C@H]([C@@H](O)CO)C(O)=C1O [ascorbate]
effect of antioxidant on anti-proliferative effect of curcumin [1]: significantly increased anti-proliferative effects of curcumin
increase of the half-life of curcumin by co-addition of antioxidant [2]: > 200 fold
